Measured values reported in article PMC6894925.
Where two headings read alike, the source gives them in different places. No constants are given. Whether binding was seen depends on the method and setting. In cells and extracts the contact can be indirect. A yes stands for co-enrichment or nearness to the bait. Other partners may have been found.

Protein sequences, listed by entry. Tags and fused reporters are not part of them. Residues count along the entry.
UniProt P28824, residues 22-928: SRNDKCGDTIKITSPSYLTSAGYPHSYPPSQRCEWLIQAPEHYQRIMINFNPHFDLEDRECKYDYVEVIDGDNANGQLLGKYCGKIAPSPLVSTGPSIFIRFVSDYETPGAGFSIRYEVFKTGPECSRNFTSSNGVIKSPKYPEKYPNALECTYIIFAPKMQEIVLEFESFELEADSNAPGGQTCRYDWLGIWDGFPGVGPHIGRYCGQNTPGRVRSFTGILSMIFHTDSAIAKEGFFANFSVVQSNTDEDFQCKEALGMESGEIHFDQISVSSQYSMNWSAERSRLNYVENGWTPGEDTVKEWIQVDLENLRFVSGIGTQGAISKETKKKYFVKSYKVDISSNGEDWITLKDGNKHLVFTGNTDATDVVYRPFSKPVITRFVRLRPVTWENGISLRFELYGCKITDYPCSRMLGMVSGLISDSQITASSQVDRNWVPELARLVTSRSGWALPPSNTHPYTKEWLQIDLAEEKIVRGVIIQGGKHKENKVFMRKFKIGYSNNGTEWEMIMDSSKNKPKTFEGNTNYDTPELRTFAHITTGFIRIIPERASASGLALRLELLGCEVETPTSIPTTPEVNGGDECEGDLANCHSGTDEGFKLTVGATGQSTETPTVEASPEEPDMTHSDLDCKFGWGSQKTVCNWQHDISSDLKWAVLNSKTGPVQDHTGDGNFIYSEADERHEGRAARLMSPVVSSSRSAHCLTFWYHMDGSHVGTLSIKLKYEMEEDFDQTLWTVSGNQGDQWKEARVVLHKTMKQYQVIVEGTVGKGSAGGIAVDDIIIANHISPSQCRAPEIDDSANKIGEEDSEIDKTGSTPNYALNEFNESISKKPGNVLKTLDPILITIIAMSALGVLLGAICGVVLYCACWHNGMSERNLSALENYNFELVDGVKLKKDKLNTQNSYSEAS
UniProt Q7ZTM9: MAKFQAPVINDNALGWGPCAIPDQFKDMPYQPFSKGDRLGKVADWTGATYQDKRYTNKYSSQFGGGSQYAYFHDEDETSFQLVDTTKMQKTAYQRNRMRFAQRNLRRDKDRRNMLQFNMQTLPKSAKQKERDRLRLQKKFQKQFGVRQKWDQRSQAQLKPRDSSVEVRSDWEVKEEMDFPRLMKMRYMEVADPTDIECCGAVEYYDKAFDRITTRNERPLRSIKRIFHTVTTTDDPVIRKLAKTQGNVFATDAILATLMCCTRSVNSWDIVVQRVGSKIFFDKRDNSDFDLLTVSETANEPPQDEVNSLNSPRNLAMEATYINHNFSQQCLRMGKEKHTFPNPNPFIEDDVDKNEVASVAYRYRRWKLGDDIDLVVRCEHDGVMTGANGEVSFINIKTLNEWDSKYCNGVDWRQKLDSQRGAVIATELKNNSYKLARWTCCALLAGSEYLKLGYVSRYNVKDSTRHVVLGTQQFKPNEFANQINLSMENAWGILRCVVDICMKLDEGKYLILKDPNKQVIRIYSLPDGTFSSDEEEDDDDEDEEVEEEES

How the values were obtained:
[1] = target: Neuropilin-1 (Nrp1), Xenopus laevis (Xenopus laevis (endogenous in embryonic brains and eyes and retinal cultures)) (UniProt P28824); test: affinity purification with mass spectrometry; IP of endogenous DCC and Nrp1 from Xenopus laevis embryonic brain and eye lysate with antibody-coupled Dynabeads, LC-MS/MS of eluates, triplicate, LFQ intensities against an IgG control pulldown (Perseus, FDR < 0.05)
[2] = target: Neuropilin-1 (Nrp1), Xenopus laevis (Xenopus laevis (endogenous in embryonic brains and eyes and retinal cultures)) (UniProt P28824); test: as above; remark: listed apart in the source

| Molecule | binding [1] | binding [2] |
| --- | --- | --- |
| eIF3d, Xenopus laevis (from UniProt Q7ZTM9 1-550) | binds | – |
| Staufen1, Xenopus laevis (protein, UniProt Q6GM35 1-708) MSQAPKSPAAPLPKIQILNKNQHSPLPQPLSIPSTASPLPSENAGRPLQNSALPSPSVTSSGPTAVSSNMANPKEKTPMCLVNELARFNKIQPVYKLLSEQGPAHSKVIPLGRWQDYSLLERVGEERPRQMFTVQLTLGDQYWEAEGTSIKKAQHAAAAKALEGTKYPKPTVRPVRDSITPTVELNALCMKLGRKPIYKPLDPYTGIRSAYNYNMRGGGYPPRYFYPFPVAPILYQVELSVGGQQFHGKGRTRQAAKHDAAARALKSLHHEPLPDKPALNGKAADEENLNKSEISQVFEIALKRNMSVNFEVTKETGPPHMKSFLTKVIVGEFLGEGEGKSKKISKKNAAIAVLEELRKLPPLPTVEKMRPKIKKKTKSIVKLPTSPEYGQGMNPISRLAQIQQAKKGKEPEYILITERGLPRRREFVMQVKVGNHAAEGSGTNKKVAKRNAAENMLEILGFKVPPPPPKPALKTEEKLPVKKPGDGRKVTFYEPGSGEDGANHNKDDEFRMPYHSHQQLPAGILPMVPEVAQAVGVNQGLHTKEFNRVAPNPAKATVTAMIARELLYAGISPTADTILKNNNAAGHVLRGPFTRPSEQLNYLSRVQGLEVEYKDFPKNNKNEFVSLINCSSQPPLISHGIGKDVESCHDMAALNILKLLSELDQQNPEMPRTGNGPMSVCVKPEMESDPLLKPANSNTLGQTLDSTA | – | binds |
